Source: publication PMC7948726
No constants are given. Whether binding was seen depends on the method and setting. Binding seen in cells or lysates may run through a third protein. Sequences can lack the tags named with a protein.

Chains of the proteins cited; added tags and fusions are not shown. Lines headed by an entry give the natural chain unless they say otherwise; changes in a name come on top. A line that says so, or that is headed by a name, gives the form on record, which may keep a tag or linker.
V5-Tau (P10636-6, form named): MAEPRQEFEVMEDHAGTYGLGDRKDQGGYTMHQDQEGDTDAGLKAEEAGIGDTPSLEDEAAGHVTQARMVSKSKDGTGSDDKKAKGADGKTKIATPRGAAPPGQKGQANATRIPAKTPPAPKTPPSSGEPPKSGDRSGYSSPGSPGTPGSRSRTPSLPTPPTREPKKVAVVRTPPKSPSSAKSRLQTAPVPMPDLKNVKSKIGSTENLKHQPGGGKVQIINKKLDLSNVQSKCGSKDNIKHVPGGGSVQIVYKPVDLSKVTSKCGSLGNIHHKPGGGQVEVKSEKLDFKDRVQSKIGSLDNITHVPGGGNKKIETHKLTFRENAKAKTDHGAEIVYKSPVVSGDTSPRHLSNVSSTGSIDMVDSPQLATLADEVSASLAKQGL

Key:
Myc-PPM1A = molecular target: T1, Myc-PPM1A (UniProt P35813); experiment: co-IP; HEK293 cells transfected 24 h with V5-Tau, Myc-PPM1A or Myc-PPM1B; precipitated with anti-Myc, blot with anti-V5
T1 sequence: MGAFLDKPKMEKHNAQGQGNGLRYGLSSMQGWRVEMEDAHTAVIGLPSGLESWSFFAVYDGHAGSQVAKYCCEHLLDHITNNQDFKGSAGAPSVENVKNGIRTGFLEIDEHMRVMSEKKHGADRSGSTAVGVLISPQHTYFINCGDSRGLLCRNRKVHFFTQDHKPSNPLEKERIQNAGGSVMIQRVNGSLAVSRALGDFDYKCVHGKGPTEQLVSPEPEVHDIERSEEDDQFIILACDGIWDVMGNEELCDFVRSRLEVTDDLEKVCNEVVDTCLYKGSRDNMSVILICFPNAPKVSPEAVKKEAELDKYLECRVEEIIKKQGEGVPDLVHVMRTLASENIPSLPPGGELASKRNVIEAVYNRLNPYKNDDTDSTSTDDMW

Myc-PPM1B (human) = molecular target: T2, Myc-PPM1B (human) (UniProt O75688); experiment: as above
T2 sequence: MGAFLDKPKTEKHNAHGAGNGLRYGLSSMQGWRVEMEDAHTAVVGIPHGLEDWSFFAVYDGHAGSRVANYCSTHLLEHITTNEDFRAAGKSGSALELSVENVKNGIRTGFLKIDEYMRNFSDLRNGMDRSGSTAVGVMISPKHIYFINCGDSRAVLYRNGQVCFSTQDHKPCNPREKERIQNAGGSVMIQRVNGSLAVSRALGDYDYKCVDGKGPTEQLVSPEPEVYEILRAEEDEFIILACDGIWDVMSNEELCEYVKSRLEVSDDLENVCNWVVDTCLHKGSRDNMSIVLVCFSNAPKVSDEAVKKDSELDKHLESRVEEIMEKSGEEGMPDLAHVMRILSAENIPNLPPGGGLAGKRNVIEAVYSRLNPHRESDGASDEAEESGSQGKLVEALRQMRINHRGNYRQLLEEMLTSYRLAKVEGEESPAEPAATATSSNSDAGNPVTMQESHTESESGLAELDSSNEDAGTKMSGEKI

Substance: V5-Tau (from UniProt P10636-6 1-383)
- binding (Myc-PPM1A): no binding
- binding (Myc-PPM1B (human)): no binding
